Source: paper PMC5569456
These are yes or no findings as the source states them, for the method shown. In cells and extracts the contact can be indirect. A yes stands for co-enrichment or nearness to the bait. Other partners may have been found. For part of these data: A no says only that the protein was not detected with the bait. For part of these data: Tags and fused reporters may be left off the sequences shown.

Amino acid sequences for entries named in this document (tags omitted).
UniProt P39812: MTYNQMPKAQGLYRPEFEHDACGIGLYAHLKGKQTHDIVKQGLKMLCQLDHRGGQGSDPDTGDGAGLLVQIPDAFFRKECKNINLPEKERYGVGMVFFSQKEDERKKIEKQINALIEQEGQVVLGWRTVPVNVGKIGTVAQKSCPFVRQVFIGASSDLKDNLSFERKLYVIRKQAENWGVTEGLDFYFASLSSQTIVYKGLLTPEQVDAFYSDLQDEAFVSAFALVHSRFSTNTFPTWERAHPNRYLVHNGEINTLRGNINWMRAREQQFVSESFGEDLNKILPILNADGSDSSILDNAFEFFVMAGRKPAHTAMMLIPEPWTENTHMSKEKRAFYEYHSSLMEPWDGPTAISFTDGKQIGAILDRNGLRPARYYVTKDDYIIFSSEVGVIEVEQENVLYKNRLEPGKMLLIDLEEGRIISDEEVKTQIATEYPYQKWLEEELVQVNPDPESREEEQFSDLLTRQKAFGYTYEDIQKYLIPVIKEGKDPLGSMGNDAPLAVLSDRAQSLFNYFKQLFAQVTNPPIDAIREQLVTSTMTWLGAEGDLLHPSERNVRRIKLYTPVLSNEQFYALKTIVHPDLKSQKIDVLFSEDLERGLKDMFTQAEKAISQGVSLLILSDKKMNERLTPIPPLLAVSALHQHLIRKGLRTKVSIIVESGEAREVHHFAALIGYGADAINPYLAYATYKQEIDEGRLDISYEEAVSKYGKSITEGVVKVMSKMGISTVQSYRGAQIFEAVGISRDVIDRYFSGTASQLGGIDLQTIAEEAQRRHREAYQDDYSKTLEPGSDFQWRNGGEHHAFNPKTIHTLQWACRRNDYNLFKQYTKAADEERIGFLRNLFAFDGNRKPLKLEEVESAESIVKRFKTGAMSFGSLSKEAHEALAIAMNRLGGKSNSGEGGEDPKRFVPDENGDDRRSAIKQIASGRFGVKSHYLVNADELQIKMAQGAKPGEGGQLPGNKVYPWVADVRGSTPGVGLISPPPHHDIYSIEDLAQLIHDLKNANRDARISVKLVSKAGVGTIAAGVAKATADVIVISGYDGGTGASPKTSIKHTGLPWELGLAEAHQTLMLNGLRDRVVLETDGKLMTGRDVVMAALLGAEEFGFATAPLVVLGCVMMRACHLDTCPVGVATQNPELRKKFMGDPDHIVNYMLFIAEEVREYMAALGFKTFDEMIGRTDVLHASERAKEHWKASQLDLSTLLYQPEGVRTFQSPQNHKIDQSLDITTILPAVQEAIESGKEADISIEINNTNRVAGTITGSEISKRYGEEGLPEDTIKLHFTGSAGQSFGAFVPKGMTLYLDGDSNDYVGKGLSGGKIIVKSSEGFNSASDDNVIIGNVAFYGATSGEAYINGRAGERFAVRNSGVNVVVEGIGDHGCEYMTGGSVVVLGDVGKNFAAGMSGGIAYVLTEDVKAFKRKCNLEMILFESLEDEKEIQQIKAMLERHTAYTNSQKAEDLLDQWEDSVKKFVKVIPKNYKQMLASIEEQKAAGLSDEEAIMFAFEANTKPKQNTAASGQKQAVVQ

T1: C-terminal SPA-tagged GlnR protein (GlnR^SPA) (Bacillus subtilis) (UniProt P37582)
T1 sequence: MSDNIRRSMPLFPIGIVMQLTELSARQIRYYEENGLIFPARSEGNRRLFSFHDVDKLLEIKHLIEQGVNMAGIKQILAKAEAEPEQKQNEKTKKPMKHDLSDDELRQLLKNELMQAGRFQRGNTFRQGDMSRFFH

T2: PerR^SPA protein (Bacillus subtilis) (UniProt P71086)
T2 sequence: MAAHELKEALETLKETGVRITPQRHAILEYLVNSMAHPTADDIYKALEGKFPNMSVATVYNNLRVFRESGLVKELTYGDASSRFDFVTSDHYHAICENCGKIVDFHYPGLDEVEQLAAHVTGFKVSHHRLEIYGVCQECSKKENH

T3: C-terminal SPA-tagged GlnR protein (GlnR^SPA) (Bacillus subtilis), P37582
T3 chain: T1 sequence

B1: glutamine synthetase (GS), P12425 1-444 (enzyme)
chain: MAKYTREDIEKLVKEENVKYIRLQFTDILGTIKNVEIPVSQLGKALDNKVMFDGSSIEGFVRIEESDMYLYPDLNTFVIFPWTAEKGKVARFICDIYNPDGTPFEGDPRNNLKRILKEMEDLGFSDFNLGPEPEFFLFKLDEKGEPTLELNDKGGYFDLAPTDLGENCRRDIVLELEEMGFEIEASHHEVAPGQHEIDFKYAGAVRSCDDIQTFKLVVKTIARKHGLHATFMPKPLFGVNGSGMHCNLSLFKNGVNAFFDENADLQLSETAKHFIAGIVKHATSFTAVTNPTVNSYKRLVPGYEAPCYVAWSAQNRSPLIRIPASRGISTRVEVRSVDPAANPYLALSVLLAAGLDGIKNKLEAPAPIDRNIYVMSKEERMENGIVDLPATLAEALEEFKSNEVMVKALGEHLFEHFIEAKEIEWDMFRTQVHPWEREQYMSQY
B2: TnrA (protein, UniProt Q45666 1-110)
chain: MTTEDHSYKDKKVISIGIVSELTGLSVRQIRYYEERKLIYPQRSSRGTRKYSFADVERLMDIANKREDGVQTAEILKDMRKKEQMLKNDPQVRKKMLEGQLNAHFRYKNR
B3: GlnR (protein, UniProt P37582 1-135)
chain: T1 sequence

Legend:
Experiment in all cases: affinity purification with mass spectrometry; SPA-tag tandem affinity purification from B. subtilis cells grown in LB to exponential phase; cells resuspended in 10 mM Tris-Cl pH 8.0, 150 mM NaCl, lysozyme, Benzonase; eluted partners quantified by LC-MS/MS (PAI), 3 independent purifications; controls: no-SPA strain and PerR-SPA
[1] = biological target: T1, C-terminal SPA-tagged GlnR protein (GlnR^SPA) (Bacillus subtilis)
[2] = biological target: T2, PerR^SPA protein (Bacillus subtilis)
[3] = biological target: T3, C-terminal SPA-tagged GlnR protein …; conditions: remark: other sources report otherwise

Molecule	binding [1]	binding [2]	binding [3]
GltA (glutamate synthase) (from UniProt P39812 1-1520)	binds	no binding	–
B1	–	–	no binding
B2	binds	no binding	–
B3	–	no binding	–
